Data reported in US20140228286A1, “SPECIFIC PDE4B-INHIBITORS FOR THE TREATMENT OF DIABETES MELLITUS” (BOEHRINGER INGELHEIM INTERNATIONAL GMBH, priority 2013, published 2014).
For at least one compound, name, drawing or mass did not settle the structure.

Amino acid sequences for entries named in this document (tags omitted). Residues count along the entry.
UniProt Q07343, 324-656: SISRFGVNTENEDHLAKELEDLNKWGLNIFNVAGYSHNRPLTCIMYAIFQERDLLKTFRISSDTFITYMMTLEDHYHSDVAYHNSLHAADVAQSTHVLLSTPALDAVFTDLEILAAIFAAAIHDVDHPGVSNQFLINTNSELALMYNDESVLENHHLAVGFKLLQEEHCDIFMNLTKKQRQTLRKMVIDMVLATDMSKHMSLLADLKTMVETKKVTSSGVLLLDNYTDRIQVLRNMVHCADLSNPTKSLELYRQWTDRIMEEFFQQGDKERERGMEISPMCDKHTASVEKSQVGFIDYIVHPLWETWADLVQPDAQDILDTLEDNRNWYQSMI

Experiments:
Sprague Dawley (SD) rats = assay: Oral glucose tolerance test in overnight fasted male Sprague Dawley rats; type: in vivo, rat; conditions: doses 1 and 3 mg/kg oral; two-sided unpaired Student t-test
Experimental: An oral glucose tolerance test is performed in overnight fasted male Sprague Dawley (SD) rats (RjHan:SD), with a weight of 320-350 g. A pre-dose blood sample is obtained by tail bleed. Blood glucose is measured with a glucometer, and the animals are randomized for blood glucose (n=6/group). Subsequently, the groups receive a single oral administration of either vehicle alone (0.5% aqueous hydroxyethyl-cellulose) or vehicle containing one of the PDE4 inhibitors. The animals receive an oral glucose load (2 g/kg) 60 min after compound administration. Blood glucose is measured in tail blood 15 min, 30 min, 60 min, 90 min, and 120 min after the glucose challenge. Glucose excursion is quantified by calculating the reactive glucose AUC (area under the curve). The data are presented as mean±SEM (standard error of mean). The two-sided unpaired Student t-test is used for statistical comparison of the control group and the active groups.
“Cpd. A” is the PDE4 inhibitor Example 1.35 at a dose of 1 and 3 mg/kg. “Cpd. B” is the PDE4 inhibitor Example 1.46 at a dose of 1 and 3 mg/kg. P values versus control are indicated by symbols above the bars (*, p<0.05). Cpd. A (=Example 1.35) reduces glucose excursion by 13.2 (p=0.09) and 15.0% (p=0.11) with a dose of 1 and 3 mg/kg, respectively. Cpd. […] Cpd.

PDE4B = biological target: T1, PDE4B (Homo sapiens, UniProt Q07343); assay: PDE4B Scintillation Proximity (SPA) Assay; type: biochemical; conditions: PDE4B active site fragment amino acids 152-484; [3H]cAMP; 30° C., one hour; read-out: Experimentally determined IC50-value for PDE4B inhibition
T1 construct: active site fragment comprising the amino acids 152-484
Excerpt: The IC50-values of the compounds of the invention (Examples 1.1 to 1.47) with respect to their PDE4B-inhibiting ability have been determined with a Scintillation Proximity (SPA) Assay (GE Healthcare, No. TRKQ7090). The Scintillation Proximity (SPA) Assay is based on the detection of the different affinities of the cyclic 3′-5′adenosine monophosphate (cAMP, low affinity) and the linear 5′-adenosine monophosphate (AMP, high affinity) to yttrium-silicate-scintillator beads. The cAMP-specific phosphodiesterase (PDE) PDE4B cleaves the 3′-phosphodiester bond of the tritium-labelled-[^3H]cAMP to the [^3H]5′-AMP. This [^3H]5′-AMP associates with the scintillator beads because of their higher affinity and causes scintillations (light flashes) which can be measured in a Wallac Microbeta Scintillation Counter.
10 μl of a [^3H]cAMP-solution (0.05 μCi in H2O, 10-30 Ci/mmol) are added to 89 μl of a PDE4B-enzyme-solution (active site fragment comprising the amino acids 152-484; 0.15-0.18 ng) in assay buffer (50 mM Tris HCl pH 7.5; 8.3 mM MgCl2; 1,7 mM ethylene glyclol tetraacetic acid (EGTA); 0.25 mg/ml bovine serum albumin (BSA)) and this mixture is incubated at 30° C. for one hour […]
After this incubation the reaction is stopped by the addition of 50 μl of bead-solution (500 mg beads/35 ml H2O, 18 mM zinc sulfate). […] After that the scintillations are measured in the scintillation counter. […]

Structure (SMILES): [O-][S+]1CCc2nc(N3CCC(c4ncc(Cl)cn4)CC3)nc(NC3(CO)CCC3)c21 (centres unmarked) [Example 1.46, (1-{2-[4-(5-Chloro-pyrimidin-2-yl)-piperidin-1-yl]-5-oxo-6,7-dihydro-5H-5λ^4-thieno[3,2-d]pyrimidin-4-yl-amino}-cyclobutyl)-methanol]
- decrease of glucose excursion in the oral glucose tolerance test, significance versus control group (Sprague Dawley (SD) rats): statistically significant versus control group
- IC50 (PDE4B): 7.2 nM
